Data as given in patent publication US20260258125A1.

Target: cyno CEACAM5 protein (cynomolgus monkey)
Experiment: ELISA, antigen coated on plate

B1: PR303563 (Tinurilimab) (antibody, human IgG2, kappa, V domains shown)
VH: QVTLRESGPALVKPTQTLTLTCTFSGFSLSTYGIGVGWIRQPPGKALEWLAHIWWNDNKYYSTSLKTRLTISKDTSKNQVVLTMTNMDPVDTATYYCARISLPYFDYWGQGTTLTVSS
VL: DIQLTQSPSFLSASVGDRVTITCKASQNVGTAVAWYQQKPGKAPKLLIYSASNRYTGVPSRFSGSGSGTEFTLTISSLQPEDFATYYCQQYSSYPLTFGGGTKVEIKR
With B1 as the binder, how does the binding read?
The binding was “no binding”.

These are yes or no findings as the source states them, for the method shown.
